Source: PubChem BioAssay AID248 (DTP/NCI, 2004)
The list does not hold the whole screen: it gathers tests that were run many times, whatever their T/C, doses with no T/C, and many T/C values between a quarter and a half above the control. Further doses and runs are listed elsewhere. T/C gives the treated animals as a percentage of the vehicle group. Some doses have a count of surviving animals in place of a T/C: the source holds a T/C of zero for them, seemingly a mark for toxic or unscored doses. Some survivor counts are full or nearly so, which does not show that the dose was tolerated: the source hardly ever lists a survival T/C far under the control, and the zero likely stands for such cases as well. Survivors were counted at the toxicity check, usually on the fifth day, unless a day is given; later deaths do not show. Schedules are NCI's codes, taken here to give the interval after Q, in days (D) or hours (H), and the number of doses after X. Some structures stand for samples that the source files as different forms (salt, stereo form or complex); doses refer to the form tested. Some schedule codes hold Z or #, which are not explained here. Some entries hold several experiments; the values are given in rising order. Where survival is the endpoint, this PubChem deposit counts one and a half times the control or more as active, and values a quarter to a half above the control carry no call in these data; other NCI protocols may use other cut-offs. Counts like (3×) stand for listed records that agree. Some T/C values carry the count of animals alive at the toxicity check (mostly the fifth day); where none is given, no animal had died by that day.

Tested on: L1210 leukemia ip in BDF1 mice, survival T/C
Assay: NCI In Vivo Anticancer Drug Screen. Data for tumor model L1210 Leukemia (intraperitoneal) in B6D2F1 (BDF1) mice
Conditions: higher T/C = longer survival
[1] = T/C endpoint: mean survival time, dose: 400.0 mg/kg/injection, schedule: Q04DX003 (ip), vehicle: Klucel (hydroxypropylcellulose) (HPC)
[2] = T/C endpoint: mean survival time, dose: 100.0 mg/kg/injection, schedule: Q04DX003 (ip), vehicle: saline
[3] = T/C endpoint: mean survival time, dose: 200.0 mg/kg/injection, schedule: Q04DX003 (ip), vehicle: saline
[4] = T/C endpoint: mean survival time, dose: 400.0 mg/kg/injection, schedule: Q04DX003 (ip), vehicle: saline
[5] = T/C endpoint: mean survival time, dose: 50.0 mg/kg/injection, schedule: Q04DX003 (ip), vehicle: saline with Tween-80
[6] = T/C endpoint: mean survival time, dose: 100.0 mg/kg/injection, schedule: Q04DX003 (ip), vehicle: Klucel (hydroxypropylcellulose) (HPC)
[7] = T/C endpoint: mean survival time, dose: 200.0 mg/kg/injection, schedule: Q04DX003 (ip), vehicle: Klucel (hydroxypropylcellulose) (HPC)
[8] = T/C endpoint: mean survival time, dose: 400.0 mg/kg/injection, schedule: Q01DX001 (ip), vehicle: carboxymethylcellulose (CMC)

CNC=O was tested, and the T/C (T/C endpoint: mean survival time, dose: 88.25 mg/kg/injection, schedule: Q01DX Z (ip), vehicle: carboxymethylcellulose (CMC)) was 125 % of control, the T/C (T/C endpoint: mean survival time, dose: 250.0 mg/kg/injection, schedule: Q01DX Z (ip), vehicle: saline) was 136 % of control and the T/C (T/C endpoint: mean survival time, dose: 300.0 mg/kg/injection, schedule: Q01DX Z (ip), vehicle: saline) was 135 % of control. For the same compound, the T/C (T/C endpoint: mean survival time, dose: 500.0 mg/kg/injection, schedule: Q01DX015 (ip), vehicle: saline) was 144 % of control, the T/C (T/C endpoint: mean survival time, dose: 500.0 mg/kg/injection, schedule: Q01DX Z (ip), vehicle: saline) was 125 % of control and the T/C (T/C endpoint: mean survival time, dose: 600.0 mg/kg/injection, schedule: Q01DX009 (ip), vehicle: saline) was 146 % of control.

In the case of CCOC(=O)C(O)c1ccc[nH]1 (configuration not stated), the survivor count (T/C endpoint: mean survival time, dose: 200.0 mg/kg/injection, schedule: Q04DX003 (ip), vehicle: saline with Tween-80) is reported as 6 of 6.

In the case of Nc1nc2ncc(CCNc3ccc(C(=O)NC(CCC(=O)O)C(=O)O)cc3)nc2c(=O)[nH]1 (configuration not stated), the survivor count (T/C endpoint: mean survival time, dose: 150.0 mg/kg/injection, schedule: Q01DX Z (ip), vehicle: other) is reported as 0 of 8.

With Nc1snc2ncccc12 the survivor count [1] was 0 of 6.

For C1CC2CCCN2C1, the survivor count [2] was 4 of 6, the survivor count [3] was 2 of 6 and the survivor count [4] was 1 of 6.

In the case of C=CCNc1ncnc2c1ncn2C1OC(CO)C(O)C1O (configuration not stated), the T/C (T/C endpoint: mean survival time, dose: 50.0 mg/kg/injection, schedule: Q01DX009 (ip), vehicle: other) is reported as 126 % of control and the T/C (T/C endpoint: mean survival time, dose: 75.0 mg/kg/injection, schedule: Q01DX009 (ip), vehicle: other) is reported as 128 % of control.

For O=C1c2ccsc2C(=O)c2sccc21, the survivor count (T/C endpoint: mean survival time, dose: 400.0 mg/kg/injection, schedule: Q01DX001 (ip), vehicle: saline with Tween-80) was 0 of 6.

With NOCCCCON the T/C (T/C endpoint: mean survival time, dose: 100.0 mg/kg/injection, schedule: Q04DX002 (ip), vehicle: saline) was 93, 98, 100 % of control (2×), the survivor count (T/C endpoint: mean survival time, dose: 200.0 mg/kg/injection, schedule: Q04DX002 (ip), vehicle: saline) was 0 of 6 and the survivor count (T/C endpoint: mean survival time, dose: 400.0 mg/kg/injection, schedule: Q01DX009 (ip), vehicle: saline) was 0 of 3 and 1 of 6. For the same compound, the survivor count (T/C endpoint: mean survival time, dose: 400.0 mg/kg/injection, schedule: Q04DX002 (ip), vehicle: saline) was 0 of 3 and 0 of 6 and the survivor count [4] was 6 of 6.

In the case of Cc1ccc(N2CCN(C3=CCC(C(C)C)CC3)CC2)cc1Cl (configuration not stated), the survivor count (T/C endpoint: mean survival time, dose: 200.0 mg/kg/injection, schedule: Q01DX009 (ip), vehicle: saline with Tween-80) is reported as 3 of 6 and the survivor count (T/C endpoint: mean survival time, dose: 400.0 mg/kg/injection, schedule: Q01DX009 (ip), vehicle: saline with Tween-80) is reported as 0 of 6.

CCOC(=O)COCc1ccccc1 was tested, and the T/C (T/C endpoint: mean survival time, dose: 400.0 mg/kg/injection, schedule: Q04DX003 (ip), vehicle: saline sonified) was 129 % of control.

With O=C(Nc1cccc2ccccc12)OCc1ccco1 the survivor count (T/C endpoint: mean survival time, dose: 400.0 mg/kg/injection, schedule: Q04DX002 (ip), vehicle: saline with Tween-80) was 6 of 6.

CCCCCCCCCCCCCCCCC/C=N\N=C(N)N was tested, and the survivor count (T/C endpoint: mean survival time, dose: 240.0 mg/kg/injection, schedule: Q01DX Z (ip), vehicle: carboxymethylcellulose (CMC)) was 3 of 6 and the survivor count (T/C endpoint: mean survival time, dose: 480.0 mg/kg/injection, schedule: Q01DX Z (ip), vehicle: carboxymethylcellulose (CMC)) was 1 of 6.

In the case of NC(=O)NN=C1CSSC1, the survivor count (T/C endpoint: mean survival time, dose: 25.0 mg/kg/injection, schedule: Q01DX009 (ip), vehicle: saline with Tween-80) is reported as 0 of 6, the survivor count (T/C endpoint: mean survival time, dose: 25.0 mg/kg/injection, schedule: Q04DX003 (ip), vehicle: saline with Tween-80) is reported as 2 of 6 and the survivor count (T/C endpoint: mean survival time, dose: 50.0 mg/kg/injection, schedule: Q01DX009 (ip), vehicle: saline with Tween-80) is reported as 0 of 6. For the same compound, the survivor count [5] was 0 of 6.

O=C(NCCCl)Nc1ccncc1 was tested, and the survivor count (T/C endpoint: mean survival time, dose: 5.0 mg/kg/injection, schedule: Q01DX009 (ip), vehicle: Klucel (hydroxypropylcellulose) (HPC)) was 0 of 6, the survivor count (T/C endpoint: mean survival time, dose: 10.0 mg/kg/injection, schedule: Q04DX003 (ip), vehicle: Klucel (hydroxypropylcellulose) (HPC)) was 3 of 6 and the survivor count (T/C endpoint: mean survival time, dose: 20.0 mg/kg/injection, schedule: Q04DX003 (ip), vehicle: Klucel (hydroxypropylcellulose) (HPC)) was 1 of 6. The survivor count (T/C endpoint: mean survival time, dose: 40.0 mg/kg/injection, schedule: Q04DX003 (ip), vehicle: Klucel (hydroxypropylcellulose) (HPC)) was 0 of 6, the survivor count (T/C endpoint: mean survival time, dose: 80.0 mg/kg/injection, schedule: Q04DX003 (ip), vehicle: Klucel (hydroxypropylcellulose) (HPC)) was 0 of 6 and the survivor count [6] was 0 of 6. The survivor count [7] was 0 of 6 and the survivor count [1] was 0 of 6.

For O=C(Nc1ccc(Cl)cc1)Nc1ccc(Cl)cc1, the survivor count (T/C endpoint: mean survival time, dose: 400.0 mg/kg/injection, schedule: Q04DX003 (ip), vehicle: saline with Tween-80) was 6 of 6.

In the case of Oc1c(Cl)cc(Cl)cc1/C=N/N1CCN(/N=C/c2cc(Cl)cc(Cl)c2O)CC1, the survivor count (T/C endpoint: mean survival time, dose: 400.0 mg/kg/injection, schedule: Q01DX001 (ip), vehicle: saline) is reported as 4 of 4.

With CC1(C)C(=O)N(Br)C(=O)N1Br the survivor count [6] was 1 of 3, the survivor count [7] was 3 of 3 and the survivor count [1] was 1 of 3.

For CCOc1ccc(Nc2ncnc3nc[nH]c23)cc1CN(CCCl)CCCl, the T/C (T/C endpoint: mean survival time, dose: 2.2 mg/kg/injection, schedule: Q04DX003 (ip), vehicle: saline) was 128 % of control, the T/C (T/C endpoint: mean survival time, dose: 2.8 mg/kg/injection, schedule: Q01DX Z (ip), vehicle: carboxymethylcellulose (CMC)) was 126 % of control and the T/C (T/C endpoint: mean survival time, dose: 3.13 mg/kg/injection, schedule: Q04DX003 (ip), vehicle: saline) was 128 % of control. For the same compound, the T/C (T/C endpoint: mean survival time, dose: 6.25 mg/kg/injection, schedule: Q04DX003 (ip), vehicle: saline) was 125 % of control [5 of 6 alive], the T/C (T/C endpoint: mean survival time, dose: 6.3 mg/kg/injection, schedule: Q01DX Z (ip), vehicle: carboxymethylcellulose (CMC)) was 130 % of control [6 of 7 alive] and the survivor count (T/C endpoint: mean survival time, dose: 9.5 mg/kg/injection, schedule: Q01DX Z (ip), vehicle: carboxymethylcellulose (CMC)) was 3 of 7. The survivor count (T/C endpoint: mean survival time, dose: 20.0 mg/kg/injection, schedule: Q01DX Z (ip), vehicle: carboxymethylcellulose (CMC)) was 2 of 6, the survivor count (T/C endpoint: mean survival time, dose: 50.0 mg/kg/injection, schedule: Q01DX001 (ip), vehicle: carboxymethylcellulose (CMC)) was 2 of 4 and the survivor count (T/C endpoint: mean survival time, dose: 80.0 mg/kg/injection, schedule: Q01DX001 (ip), vehicle: carboxymethylcellulose (CMC)) was 1 of 4. The survivor count (T/C endpoint: mean survival time, dose: 100.0 mg/kg/injection, schedule: Q01DX001 (ip), vehicle: carboxymethylcellulose (CMC)) was 1 of 4, the survivor count [2] was 0 of 6 and the survivor count (T/C endpoint: mean survival time, dose: 200.0 mg/kg/injection, schedule: Q01DX001 (ip), vehicle: carboxymethylcellulose (CMC)) was 0 of 4. The survivor count [3] was 0 of 6, the survivor count [8] was 0 of 4 and the survivor count [4] was 1 of 6.

For O=[N+]([O-])c1c[nH]c2[nH]cnc(=S)c12, the survivor count [8] was 2 of 4.

CC(=O)OC1CC2(Cl)C(Cl)=C(Cl)C1(Cl)C2(Cl)Cl (configuration not stated) was tested, and the survivor count [3] was 6 of 6.

O=C(O)c1ccccc1N(CCO)CCCl was tested, and the survivor count (T/C endpoint: median survival time, dose: 100.0 mg/kg/injection, schedule: Q01DX009 (ip), vehicle: Klucel (hydroxypropylcellulose) (HPC)) was 0 of 6, the survivor count (T/C endpoint: median survival time, dose: 200.0 mg/kg/injection, schedule: Q01DX009 (ip), vehicle: Klucel (hydroxypropylcellulose) (HPC)) was 0 of 6 and the survivor count (T/C endpoint: median survival time, dose: 400.0 mg/kg/injection, schedule: Q01DX009 (ip), vehicle: Klucel (hydroxypropylcellulose) (HPC)) was 0 of 6.

CC(Cc1ccccc1)n1c(-c2ccccc2)c[n+]2ccccc12 (configuration not stated) was tested, and the survivor count (T/C endpoint: mean survival time, dose: 9.38 mg/kg/injection, schedule: Q01DX001 (ip), vehicle: other) was 1 of 6, the survivor count (T/C endpoint: mean survival time, dose: 18.75 mg/kg/injection, schedule: Q01DX001 (ip), vehicle: other) was 0 of 6 and the survivor count (T/C endpoint: mean survival time, dose: 37.5 mg/kg/injection, schedule: Q01DX001 (ip), vehicle: other) was 0 of 6. The survivor count (T/C endpoint: mean survival time, dose: 75.0 mg/kg/injection, schedule: Q01DX001 (ip), vehicle: other) was 0 of 6, the survivor count (T/C endpoint: mean survival time, dose: 150.0 mg/kg/injection, schedule: Q01DX001 (ip), vehicle: other) was 0 of 6 and the survivor count (T/C endpoint: mean survival time, dose: 300.0 mg/kg/injection, schedule: Q01DX001 (ip), vehicle: other) was 0 of 6.

With O=C1C=CC(=C(Br)Br)O1 the survivor count [5] was 3 of 3, the survivor count [3] was 0 of 3 and the survivor count [4] was 0 of 3.
